Reference: patent US20170267778A1
These are yes or no findings as the source states them, for the method shown. Some results given as binding are weak or reduced against the parent protein; the word gives no strength.

Sequences of proteins named here, by UniProt entry; tags and fusion partners are left off. Residues count along the entry.
UniProt P15941, residues 126-445: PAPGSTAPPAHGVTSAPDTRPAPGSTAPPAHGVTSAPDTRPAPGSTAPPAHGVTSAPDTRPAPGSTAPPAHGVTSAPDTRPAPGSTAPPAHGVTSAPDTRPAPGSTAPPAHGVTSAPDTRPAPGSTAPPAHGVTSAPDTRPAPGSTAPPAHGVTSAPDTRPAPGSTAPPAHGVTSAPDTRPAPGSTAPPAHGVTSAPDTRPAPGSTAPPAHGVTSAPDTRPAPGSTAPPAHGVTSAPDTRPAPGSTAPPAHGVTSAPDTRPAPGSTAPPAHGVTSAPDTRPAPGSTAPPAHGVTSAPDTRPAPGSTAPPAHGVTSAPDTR

Target: 16TR-MUC1-Tn (human) (UniProt P15941)
Assay: Tn-MUC1 binding ELISA (protocol 4)

binding: binds
B1: Ab6 (antibody, human IgG1, V domains shown)
VH: EVQLVESGAEVKKPGASVEVSCQASGYTFTDHAIHWVRQAPGQGLEWMGHFSPGNTDIKYNDKFKGRVTMTVDRSINTAYMELRRLRSDDTAVYYCKTSTFFFDYWGQGTMVTVSS
VL: DIVMTQSPLSLPVTPGEPASISCKSSQSLLNSGDQKNYLTWYLQKPGQSPQLLIYWASTRESGVPDRFSGSGSGTDFTLKISRVEAEDVGVYYCQNDYSYPLTFGGGTKVEIK
